Experimental data from publication PMC4144780, “MSRB7 reverses oxidation of GSTF2/3 to confer tolerance of Arabidopsis thaliana to oxidative stress” (Journal of Experimental Botany, 2014).
No constants are given. Whether binding was seen depends on the method and setting. For some of these results: Binding seen in cells or lysates may run through a third protein. Some results given as binding are weak or reduced against the parent protein; the word gives no strength. Sequences can lack the tags named with a protein.

T1: MSRB7 fused with the C-terminal fragment of yellow fluorescence protein (YFP) (A. thaliana) (UniProt Q8VY86)
T1 sequence: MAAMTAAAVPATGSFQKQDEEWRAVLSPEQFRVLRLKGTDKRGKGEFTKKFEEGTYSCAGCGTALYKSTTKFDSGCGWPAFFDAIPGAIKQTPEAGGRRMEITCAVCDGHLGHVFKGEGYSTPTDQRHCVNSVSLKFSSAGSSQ

T2: His–flag–MSRB7 (A. thaliana) (UniProt Q8VY86)
T2 sequence: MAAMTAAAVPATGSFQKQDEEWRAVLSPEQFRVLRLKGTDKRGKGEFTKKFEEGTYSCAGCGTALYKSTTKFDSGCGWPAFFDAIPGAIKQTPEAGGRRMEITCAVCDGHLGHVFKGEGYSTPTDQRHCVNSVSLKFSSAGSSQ

T3: MSRB7 cloned into pDEST22 (yeast two-hybrid) (A. thaliana) (UniProt Q8VY86)
T3 sequence: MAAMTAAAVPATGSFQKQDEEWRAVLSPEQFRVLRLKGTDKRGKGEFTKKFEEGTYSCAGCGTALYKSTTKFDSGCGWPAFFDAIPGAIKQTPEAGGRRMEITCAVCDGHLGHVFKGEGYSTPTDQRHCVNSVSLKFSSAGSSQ


Columns and labels:
[1] = target: T1, MSRB7 fused with the C-terminal fragment of yellow fluorescence protein (YFP) (A. thaliana); test: split reporter; BiFC in A. thaliana protoplasts co-transformed with BiFC plasmids and the nuclear marker bZIP63–CFP; 16 h at room temperature under light; confocal microscopy
[2] = target: T2, His–flag–MSRB7 (A. thaliana); test: co-IP; recombinant His–flag–MSRB7 and oxidized His–GSTs incubated with rabbit anti-flag antibody in IP buffer (15 mM HEPES pH 7.4, 1 mM EDTA, 1 mM DTT, 10 mM MgCl2, 30 mM KCl) 1 h at room temperature; Protein G–Sepharose; blot with mouse anti-His antibody; both purified
[3] = target: T3, MSRB7 cloned into pDEST22 (yeast two-hybrid) (A. thaliana); test: two-hybrid; ProQuest two-hybrid system, yeast strain MaV203; MSRB7 in pDEST22 as bait, GSTs in pDEST32 as prey; selection on SD –Leu–Trp and –Leu–Trp–His; three biological repeats

Binder	binding [1]	binding [3]	other results
GSTF2 fused with the N-terminal fragment of YFP (enzyme, UniProt P46422 1-212) MAGIKVFGHPASIATRRVLIALHEKNLDFELVHVELKDGEHKKEPFLSRNPFGQVPAFEDGDLKLFESRAITQYIAHRYENQGTNLLQTDSKNISQYAIMAIGMQVEDHQFDPVASKLAFEQIFKSIYGLTTDEAVVAEEEAKLAKVLDVYEARLKEFKYLAGETFTLTDLHHIPAIQYLLGTPTKKLFTERPRVNEWVAEITKRPASEKVQ	binds		
GSTF3 fused with the N-terminal fragment of YFP (enzyme, UniProt Q9SLM6 1-212) MAGIKVFGHPASTSTRRVLIALHEKNLDFELVHVELKDGEHKKEPFLSRNPFGQVPAFEDGDLKLFESRAITQYIAHRYENQGTNLLPADSKNIAQYAIMSIGIQVEAHQFDPVASKLAWEQVFKFNYGLNTDQAVVAEEEAKLAKVLDVYEARLKEFKYLAGETFTLTDLHHIPVIQYLLGTPTKKLFTERPRVNEWVAEITKRPASEKVL	binds		
GSTF8 fused with the N-terminal fragment of YFP (enzyme, UniProt Q96266 50-263) ASIKVHGVPMSTATMRVLATLYEKDLQFELIPVDMRAGAHKQEAHLALNPFGQIPALEDGDLTLFESRAITQYLAEEYSEKGEKLISQDCKKVKATTNVWLQVEGQQFDPNASKLAFERVFKGMFGMTTDPAAVQELEGKLQKVLDVYEARLAKSEFLAGDSFTLADLHHLPAIHYLLGTDSKVLFDSRPKVSEWIKKISARPAWAKVIDLQKQ	binds		
oxidized His–GSTF8 (enzyme, UniProt Q96266 50-263, oxidized (positions not stated for this sample)) ASIKVHGVPMSTATMRVLATLYEKDLQFELIPVDMRAGAHKQEAHLALNPFGQIPALEDGDLTLFESRAITQYLAEEYSEKGEKLISQDCKKVKATTNVWLQVEGQQFDPNASKLAFERVFKGMFGMTTDPAAVQELEGKLQKVLDVYEARLAKSEFLAGDSFTLADLHHLPAIHYLLGTDSKVLFDSRPKVSEWIKKISARPAWAKVIDLQKQ			binding [2]: binds
GSTF2 cloned into pDEST32 (yeast two-hybrid) (enzyme, UniProt P46422 1-212) MAGIKVFGHPASIATRRVLIALHEKNLDFELVHVELKDGEHKKEPFLSRNPFGQVPAFEDGDLKLFESRAITQYIAHRYENQGTNLLQTDSKNISQYAIMAIGMQVEDHQFDPVASKLAFEQIFKSIYGLTTDEAVVAEEEAKLAKVLDVYEARLKEFKYLAGETFTLTDLHHIPAIQYLLGTPTKKLFTERPRVNEWVAEITKRPASEKVQ		binds weakly	
GSTF3 cloned into pDEST32 (yeast two-hybrid) (enzyme, UniProt Q9SLM6 1-212) MAGIKVFGHPASTSTRRVLIALHEKNLDFELVHVELKDGEHKKEPFLSRNPFGQVPAFEDGDLKLFESRAITQYIAHRYENQGTNLLPADSKNIAQYAIMSIGIQVEAHQFDPVASKLAWEQVFKFNYGLNTDQAVVAEEEAKLAKVLDVYEARLKEFKYLAGETFTLTDLHHIPVIQYLLGTPTKKLFTERPRVNEWVAEITKRPASEKVL		binds weakly	
GSTF8 cloned into pDEST32 (yeast two-hybrid) (enzyme, UniProt Q96266 1-263) MGAIQARLPLFLSPPSIKHHTFLHSSSSNSNFKIRSNKSSSSSSSSIIMASIKVHGVPMSTATMRVLATLYEKDLQFELIPVDMRAGAHKQEAHLALNPFGQIPALEDGDLTLFESRAITQYLAEEYSEKGEKLISQDCKKVKATTNVWLQVEGQQFDPNASKLAFERVFKGMFGMTTDPAAVQELEGKLQKVLDVYEARLAKSEFLAGDSFTLADLHHLPAIHYLLGTDSKVLFDSRPKVSEWIKKISARPAWAKVIDLQKQ		binds weakly	
